# Patent US20220160814A1, “COMPOSITIONS AND METHODS FOR PROTECTING TYPE 2 ALVEOLAR EPITHELIAL CELLS (AEC2)” (Lung Therapeutics, Inc., priority 2019, published 2022)
# Not every detail of the peptide structures is certain; ends, links or a residue may be inferred. Where no end group is shown, it is not given here.
# Legend:
# Format in all cases: cell-based
# PCLS epithelium = assay: Staining of PCLS epithelium for ABCA3, SpC and Ki-67; settings: 500 μM every other day for seven days, staining on day 7
# AEC2 cells [1] = assay: Lysotracker staining of NSIP precision cut lung slices (AEC2 cell viability); settings: NSIP PCLS, 10, 100, or 500 μM, 48 h after a single treatment
# AEC2 cells [2] = assay: Lysotracker staining of end-stage IPF precision cut lung slices (AEC2 cell viability); settings: end-stage IPF biopsy PCLS, 10, 100, or 500 μM daily for 7 consecutive days
# IPF fibroblasts = assay: ELISA against human collagen 1α1 in IPF fibroblasts; settings: single dose, assayed 24 h later
substance,measurement,setting,value
"FTTFTVT [CSP7, FTTFTVT]",expression of ABCA3,PCLS epithelium,increased expression
same,expression of Ki-67 (marker of proliferation),PCLS epithelium,increased expression
same,expression of surfactant protein C (SpC),PCLS epithelium,increased expression
same,AEC2 cell viability (lysotracker staining),AEC2 cells [1],strong dose-dependent increase
same,AEC2 cell viability (lysotracker staining),AEC2 cells [2],strong dose-dependent increase
same,Col1α1 (collagen 1α1 ELISA),IPF fibroblasts,dose-dependent decrease
